Data published in patent publication US20160194644A1.
No constants are given. Whether binding was seen depends on the method and setting. In cells and extracts the contact can be indirect. Some entries that bind do so weakly or less than the wild type. Where a sequence is shown, tags or fusion partners need not be part of it. Each block holds one binder with its values, some of them ahead of it.

Amino acid sequences for entries named in this document (tags omitted). A change or cut given only in a name is not applied to a line headed by its entry. Chains listed by the source or under a name are the forms on record and can include a tag or linker.
UniProt P13569: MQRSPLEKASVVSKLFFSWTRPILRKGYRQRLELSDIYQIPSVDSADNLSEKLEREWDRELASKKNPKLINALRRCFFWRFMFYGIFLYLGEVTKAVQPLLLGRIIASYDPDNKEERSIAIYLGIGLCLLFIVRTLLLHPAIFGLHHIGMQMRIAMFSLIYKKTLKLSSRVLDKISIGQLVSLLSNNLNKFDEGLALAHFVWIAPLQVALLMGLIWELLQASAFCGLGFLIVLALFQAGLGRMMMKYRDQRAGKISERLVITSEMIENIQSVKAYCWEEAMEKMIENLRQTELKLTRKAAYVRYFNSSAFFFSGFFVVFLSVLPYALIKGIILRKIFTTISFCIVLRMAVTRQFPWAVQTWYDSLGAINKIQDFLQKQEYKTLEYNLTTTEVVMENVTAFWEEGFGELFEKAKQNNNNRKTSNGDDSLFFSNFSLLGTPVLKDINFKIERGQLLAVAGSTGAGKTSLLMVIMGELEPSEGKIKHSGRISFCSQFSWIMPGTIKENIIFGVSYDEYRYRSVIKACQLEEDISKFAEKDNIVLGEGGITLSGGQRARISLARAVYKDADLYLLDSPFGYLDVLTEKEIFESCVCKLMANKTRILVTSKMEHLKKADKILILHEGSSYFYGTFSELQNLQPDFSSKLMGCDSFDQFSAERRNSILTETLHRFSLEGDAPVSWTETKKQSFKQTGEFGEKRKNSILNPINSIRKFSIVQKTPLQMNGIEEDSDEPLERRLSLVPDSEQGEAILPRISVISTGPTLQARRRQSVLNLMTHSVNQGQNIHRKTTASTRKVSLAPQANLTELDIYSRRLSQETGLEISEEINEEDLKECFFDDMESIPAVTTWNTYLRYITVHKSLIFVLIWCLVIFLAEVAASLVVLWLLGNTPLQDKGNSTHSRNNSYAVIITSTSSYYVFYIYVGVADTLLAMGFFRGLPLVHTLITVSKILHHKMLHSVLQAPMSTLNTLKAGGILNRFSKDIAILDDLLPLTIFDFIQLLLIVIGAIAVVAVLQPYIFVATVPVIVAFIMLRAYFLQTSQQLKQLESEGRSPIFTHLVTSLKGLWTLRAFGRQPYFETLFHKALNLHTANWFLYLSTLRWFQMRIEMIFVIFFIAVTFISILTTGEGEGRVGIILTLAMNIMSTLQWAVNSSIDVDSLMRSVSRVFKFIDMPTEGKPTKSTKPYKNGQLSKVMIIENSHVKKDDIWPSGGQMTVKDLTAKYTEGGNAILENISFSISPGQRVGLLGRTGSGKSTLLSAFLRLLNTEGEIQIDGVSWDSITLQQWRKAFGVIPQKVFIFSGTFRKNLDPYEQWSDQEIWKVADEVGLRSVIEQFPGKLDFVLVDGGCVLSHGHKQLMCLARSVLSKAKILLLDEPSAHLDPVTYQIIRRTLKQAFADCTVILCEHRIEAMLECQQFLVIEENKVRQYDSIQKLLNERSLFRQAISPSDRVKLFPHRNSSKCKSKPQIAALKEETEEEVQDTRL
deltaF508 CFTR-HA (HA tag epitope at the C terminal end) (P13569, form named): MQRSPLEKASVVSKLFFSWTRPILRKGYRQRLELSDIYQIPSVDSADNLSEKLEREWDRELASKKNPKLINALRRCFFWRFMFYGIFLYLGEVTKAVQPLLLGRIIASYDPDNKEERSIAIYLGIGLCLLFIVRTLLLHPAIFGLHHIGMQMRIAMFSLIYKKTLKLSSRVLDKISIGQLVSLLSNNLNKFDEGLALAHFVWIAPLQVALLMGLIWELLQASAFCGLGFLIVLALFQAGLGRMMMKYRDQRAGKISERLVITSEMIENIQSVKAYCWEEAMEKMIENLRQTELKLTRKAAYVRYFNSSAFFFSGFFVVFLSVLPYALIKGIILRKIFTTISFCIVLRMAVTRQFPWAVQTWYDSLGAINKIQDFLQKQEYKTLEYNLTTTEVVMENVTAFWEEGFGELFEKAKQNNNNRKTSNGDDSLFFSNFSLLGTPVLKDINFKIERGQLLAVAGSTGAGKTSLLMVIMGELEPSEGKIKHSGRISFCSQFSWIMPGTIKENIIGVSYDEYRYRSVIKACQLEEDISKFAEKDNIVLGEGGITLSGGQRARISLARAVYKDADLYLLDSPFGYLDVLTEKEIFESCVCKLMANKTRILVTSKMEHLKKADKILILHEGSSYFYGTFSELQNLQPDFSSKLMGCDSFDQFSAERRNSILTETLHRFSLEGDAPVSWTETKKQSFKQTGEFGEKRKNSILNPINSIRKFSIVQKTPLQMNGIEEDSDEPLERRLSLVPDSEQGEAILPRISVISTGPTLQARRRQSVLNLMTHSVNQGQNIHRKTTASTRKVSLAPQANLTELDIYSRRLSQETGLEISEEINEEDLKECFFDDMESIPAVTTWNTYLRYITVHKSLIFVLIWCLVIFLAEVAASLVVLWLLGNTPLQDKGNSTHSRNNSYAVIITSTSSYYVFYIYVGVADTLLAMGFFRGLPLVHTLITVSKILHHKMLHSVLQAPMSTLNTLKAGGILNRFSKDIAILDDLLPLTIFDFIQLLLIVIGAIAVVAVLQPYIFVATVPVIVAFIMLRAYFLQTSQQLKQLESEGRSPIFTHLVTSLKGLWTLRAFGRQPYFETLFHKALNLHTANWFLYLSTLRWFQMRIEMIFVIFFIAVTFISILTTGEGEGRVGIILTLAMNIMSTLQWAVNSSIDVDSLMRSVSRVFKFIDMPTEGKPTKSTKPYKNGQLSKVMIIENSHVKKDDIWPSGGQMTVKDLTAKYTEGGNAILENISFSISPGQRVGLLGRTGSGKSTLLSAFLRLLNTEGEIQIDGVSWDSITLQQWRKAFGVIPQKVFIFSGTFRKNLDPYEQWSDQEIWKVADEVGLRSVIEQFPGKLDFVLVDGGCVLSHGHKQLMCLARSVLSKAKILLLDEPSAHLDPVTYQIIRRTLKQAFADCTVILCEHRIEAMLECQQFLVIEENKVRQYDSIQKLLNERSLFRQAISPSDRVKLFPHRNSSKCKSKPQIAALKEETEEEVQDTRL

Assays:
myc-UBE2J2 [1] = target: T1, myc-UBE2J2 (UniProt Q8N2K1); test: Flag co-immunoprecipitation from HEK293T cells co-transfected with myc-UBE2J2 (FIG. 4B legend)
T1 sequence (looked up): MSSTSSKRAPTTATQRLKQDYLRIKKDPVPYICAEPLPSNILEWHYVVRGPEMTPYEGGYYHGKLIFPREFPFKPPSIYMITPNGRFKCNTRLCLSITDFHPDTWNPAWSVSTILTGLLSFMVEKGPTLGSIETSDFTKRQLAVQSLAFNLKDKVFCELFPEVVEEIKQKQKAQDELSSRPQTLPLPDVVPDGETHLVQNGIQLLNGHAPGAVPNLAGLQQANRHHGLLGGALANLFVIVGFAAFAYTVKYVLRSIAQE

HA-UBE2J1 [2] = target: T2, HA-UBE2J1 (UniProt Q9Y385); test: Flag co-immunoprecipitation from HEK293T cells co-transfected with HA-UBE2J1 (FIG. 4B legend)
T2 sequence (looked up): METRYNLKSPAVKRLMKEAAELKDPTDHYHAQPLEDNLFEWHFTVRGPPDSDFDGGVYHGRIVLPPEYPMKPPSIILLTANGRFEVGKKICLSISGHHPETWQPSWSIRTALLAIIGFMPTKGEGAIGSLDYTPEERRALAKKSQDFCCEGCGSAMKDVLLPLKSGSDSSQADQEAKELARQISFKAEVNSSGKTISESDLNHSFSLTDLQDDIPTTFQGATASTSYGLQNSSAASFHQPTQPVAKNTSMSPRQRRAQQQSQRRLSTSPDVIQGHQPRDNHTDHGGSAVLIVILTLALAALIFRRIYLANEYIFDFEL

endogenous Derlin-1 [3] = target: T3, endogenous Derlin-1 (UniProt Q9BUN8); test: Flag co-immunoprecipitation from transfected HEK293T cells, immunoblot for endogenous Derlin-1
T3 sequence (looked up): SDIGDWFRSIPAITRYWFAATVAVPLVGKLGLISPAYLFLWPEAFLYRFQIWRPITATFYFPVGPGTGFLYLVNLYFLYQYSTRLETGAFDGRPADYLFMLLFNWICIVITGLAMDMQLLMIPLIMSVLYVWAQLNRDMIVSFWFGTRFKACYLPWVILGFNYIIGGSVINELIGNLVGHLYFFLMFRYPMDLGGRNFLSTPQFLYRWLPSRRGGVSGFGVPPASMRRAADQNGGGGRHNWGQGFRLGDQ

[4] = target: WT CFTR-HA (HA tag epitope at the C terminal end) (UniProt P13569); test: co-immunoprecipitation from co-transfected HEK293T cells, MG132 treated (FIG. 5D legend)
[5] = target: deltaF508 CFTR-HA (HA tag epitope at the C terminal end) (UniProt P13569); test: as above
[6] = target: WT CFTR-HA (HA tag epitope at the C terminal end) (UniProt P13569); test: anti-HA co-immunoprecipitation from co-transfected HEK293T cells, with MG132
[7] = target: deltaF508 CFTR-HA (HA tag epitope at the C terminal end) (UniProt P13569); test: as above
endogenous Erlin2 [8] = target: T4, endogenous Erlin2 (UniProt O94905); test: Flag co-immunoprecipitation from transfected HEK293T cells, immunoblot for endogenous Erlin2
T4 sequence (looked up): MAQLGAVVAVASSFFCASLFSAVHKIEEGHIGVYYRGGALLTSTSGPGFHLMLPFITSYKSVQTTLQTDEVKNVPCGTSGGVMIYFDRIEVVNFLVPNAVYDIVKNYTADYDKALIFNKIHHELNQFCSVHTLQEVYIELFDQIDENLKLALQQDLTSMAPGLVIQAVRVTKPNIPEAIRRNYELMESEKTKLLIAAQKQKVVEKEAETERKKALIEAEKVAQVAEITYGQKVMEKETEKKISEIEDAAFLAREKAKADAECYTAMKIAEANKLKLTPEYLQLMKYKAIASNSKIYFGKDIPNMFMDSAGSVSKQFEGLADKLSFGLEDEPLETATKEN

HA-UBE2J1 [9] = target: T2, HA-UBE2J1; test: Flag co-immunoprecipitation from HEK293T cells co-transfected with HA-UBE2J1
myc-UBE2J2 [10] = target: T1, myc-UBE2J2; test: Flag co-immunoprecipitation (refers to FIG. 4B)
HA-UBE2J1 [11] = target: T2, HA-UBE2J1; test: Flag co-immunoprecipitation (refers to FIG. 4B)
endogenous Erlin2 [12] = target: T4, endogenous Erlin2; test: Flag co-immunoprecipitation from transfected HEK293T cells, immunoblot (FIG. 4A legend)
endogenous Derlin-1 [13] = target: T3, endogenous Derlin-1; test: as above
myc-UBE2J2 [14] = target: T1, myc-UBE2J2; test: Flag co-immunoprecipitation from HEK293T cells co-transfected with myc-UBE2J2
[15] = target: deltaF508 CFTR-HA (HA tag epitope at the C terminal end) (UniProt P13569); test: reciprocal anti-Flag co-immunoprecipitation from co-transfected HEK293T cells
[16] = target: deltaF508 CFTR-HA (HA tag epitope at the C terminal end) (UniProt P13569); test: anti-HA co-immunoprecipitation from co-transfected HEK293T cells

binding (myc-UBE2J2 [1]): binds | binding (HA-UBE2J1 [2]): binds | binding (endogenous Derlin-1 [3]): binds | binding [4]: binds | binding [5]: binds | binding [6]: binds | binding [7]: binds | binding (endogenous Erlin2 [8]): binds | binding (HA-UBE2J1 [9]): binds | binding (myc-UBE2J2 [10]): binds | binding (HA-UBE2J1 [11]): binds | binding (endogenous Erlin2 [12]): binds | binding (endogenous Derlin-1 [13]): binds | binding (myc-UBE2J2 [14]): binds
B1: Flag-RNF185 (wild type, full length human RNF185 with N-terminal Flag tag) (enzyme, not shown: small tags and cut ends)
chain: ASKGPSASASPENSSAGGPSGSSNGAGESGGQDSTFECNICLDTAKDAVISLCGHLFCWPCLHQWLETRPNRQVCPVCKAGISRDKVIPLYGRGSTGQQDPREKTPPRPQGQRPEPENRGGFQGFGFGDGGFQMSFGIGAFPFGIFATAFNINDGRPPPAVPGTPQYVDEQFLSRLFLFVALVIMFWLLIA

binding [15]: binds | binding [16]: binds
B2: RNF185 RM (C39A, C42A), Flag-tagged (enzyme, human, UniProt Q96GF1 1-192, looked up, not shown: small tags and cut ends)
chain: MASKGPSASASPENSSAGGPSGSSNGAGESGGQDSTFEANIALDTAKDAVISLCGHLFCWPCLHQWLETRPNRQVCPVCKAGISRDKVIPLYGRGSTGQQDPREKTPPRPQGQRPEPENRGGFQGFGFGDGGFQMSFGIGAFPFGIFATAFNINDGRPPPAVPGTPQYVDEQFLSRLFLFVALVIMFWLLIA
